Experimental data: PMC12177104

By UniProt entry, the sequences of proteins in these tests, tags left out.
UniProt P00558: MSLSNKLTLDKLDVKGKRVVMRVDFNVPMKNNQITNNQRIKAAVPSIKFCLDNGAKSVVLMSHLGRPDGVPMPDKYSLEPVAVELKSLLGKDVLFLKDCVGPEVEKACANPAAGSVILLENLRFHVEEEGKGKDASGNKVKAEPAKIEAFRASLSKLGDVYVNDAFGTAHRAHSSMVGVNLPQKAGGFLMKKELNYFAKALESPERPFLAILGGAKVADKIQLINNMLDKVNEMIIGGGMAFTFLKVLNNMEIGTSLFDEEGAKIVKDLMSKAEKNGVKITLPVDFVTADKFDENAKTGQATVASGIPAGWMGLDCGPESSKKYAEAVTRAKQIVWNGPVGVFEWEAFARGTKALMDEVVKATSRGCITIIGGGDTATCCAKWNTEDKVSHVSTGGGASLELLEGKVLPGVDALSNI
UniProt P35579: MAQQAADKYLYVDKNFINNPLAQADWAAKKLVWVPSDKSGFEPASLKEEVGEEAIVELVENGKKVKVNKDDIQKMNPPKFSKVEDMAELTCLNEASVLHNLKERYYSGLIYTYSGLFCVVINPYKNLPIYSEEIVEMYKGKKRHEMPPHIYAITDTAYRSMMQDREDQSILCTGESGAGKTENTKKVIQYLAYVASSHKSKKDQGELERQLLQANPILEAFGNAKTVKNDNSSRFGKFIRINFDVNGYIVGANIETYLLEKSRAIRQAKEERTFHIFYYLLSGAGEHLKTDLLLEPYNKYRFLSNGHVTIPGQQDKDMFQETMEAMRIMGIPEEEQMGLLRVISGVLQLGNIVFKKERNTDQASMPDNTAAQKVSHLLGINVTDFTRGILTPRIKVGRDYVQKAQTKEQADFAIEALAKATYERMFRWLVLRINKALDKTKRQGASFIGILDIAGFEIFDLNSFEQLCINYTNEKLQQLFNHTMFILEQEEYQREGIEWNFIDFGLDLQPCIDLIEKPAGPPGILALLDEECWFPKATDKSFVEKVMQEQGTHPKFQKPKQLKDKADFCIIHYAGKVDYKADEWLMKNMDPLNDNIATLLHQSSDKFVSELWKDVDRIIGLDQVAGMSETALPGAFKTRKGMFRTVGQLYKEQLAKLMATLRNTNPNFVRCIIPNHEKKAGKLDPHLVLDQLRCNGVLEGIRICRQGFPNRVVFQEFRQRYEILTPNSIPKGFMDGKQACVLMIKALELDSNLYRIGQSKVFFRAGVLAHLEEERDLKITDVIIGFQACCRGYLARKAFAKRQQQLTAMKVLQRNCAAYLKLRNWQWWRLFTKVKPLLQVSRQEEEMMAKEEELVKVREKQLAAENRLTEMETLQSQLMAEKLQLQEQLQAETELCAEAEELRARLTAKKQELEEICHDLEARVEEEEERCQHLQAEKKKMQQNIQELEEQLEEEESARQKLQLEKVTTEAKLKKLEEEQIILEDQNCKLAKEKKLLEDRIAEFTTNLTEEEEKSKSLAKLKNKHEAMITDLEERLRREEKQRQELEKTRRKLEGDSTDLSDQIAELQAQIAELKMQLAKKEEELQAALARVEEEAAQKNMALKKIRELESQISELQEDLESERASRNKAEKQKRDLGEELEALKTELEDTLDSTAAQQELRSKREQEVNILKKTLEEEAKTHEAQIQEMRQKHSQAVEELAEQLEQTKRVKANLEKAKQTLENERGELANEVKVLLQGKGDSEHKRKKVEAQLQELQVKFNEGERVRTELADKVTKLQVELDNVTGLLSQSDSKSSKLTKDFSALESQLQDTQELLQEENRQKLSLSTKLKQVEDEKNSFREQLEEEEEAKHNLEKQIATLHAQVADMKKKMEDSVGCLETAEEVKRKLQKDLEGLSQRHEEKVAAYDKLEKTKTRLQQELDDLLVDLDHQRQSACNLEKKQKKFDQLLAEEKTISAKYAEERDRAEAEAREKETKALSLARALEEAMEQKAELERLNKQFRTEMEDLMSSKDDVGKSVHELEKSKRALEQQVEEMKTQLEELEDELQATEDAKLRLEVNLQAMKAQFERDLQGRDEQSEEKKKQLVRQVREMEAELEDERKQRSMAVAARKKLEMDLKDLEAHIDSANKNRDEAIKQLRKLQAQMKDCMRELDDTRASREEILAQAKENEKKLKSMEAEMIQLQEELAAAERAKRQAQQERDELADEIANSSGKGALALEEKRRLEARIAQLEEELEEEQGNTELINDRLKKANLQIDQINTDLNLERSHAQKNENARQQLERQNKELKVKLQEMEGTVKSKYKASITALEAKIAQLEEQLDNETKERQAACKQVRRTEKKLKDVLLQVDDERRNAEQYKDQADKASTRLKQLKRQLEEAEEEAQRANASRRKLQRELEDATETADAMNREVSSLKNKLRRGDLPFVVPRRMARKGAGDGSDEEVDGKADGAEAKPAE

Biological target: Phosphoglycerate kinase 1 (PGK1) (UniProt P00558)
Experiment: affinity purification with mass spectrometry; co-immunoprecipitation of PGK1 from KYSE150 ESCC cells followed by mass spectrometry; hits ranked by protein score

## myosin-9 (MYH9), heavy chain of non-muscle myosin IIA (from UniProt P35579 1-1960)
  binding: binds

No constants are given. Whether binding was seen depends on the method and setting. Binding seen in cells or lysates may run through a third protein. Here binding means that the protein was enriched with, or labelled near, the bait; the list need not be complete.
